# Reference: patent US9108920B2, “Diazeniumdiolate heterocyclic derivatives” (Merck Sharp & Dohme Corp., priority 2010, dated 2015)
# Some of these results come from one statement about several compounds together. At least one structure is not confirmed: it was looked up by name or label, or the drawing left a doubt.
# Test system: Male beagle dogs
# Assay: canine telemetry protocol, blood pressure reduction efficacy
# Format: in vivo
# Conditions: drop over a 1-6 hour period of time; 3 mg/kg oral gavage
# Method: Compounds of the invention were evaluated for blood pressure reduction efficacy using the following canine telemetry protocol described below.
# Male beagle dogs (approximately 1-3 years old) with a body weight of between 10 and 16 kg were surgically implanted with DSI radiotelemetry devices (model: TL11M2-D70-PCT). Briefly, under an inhalant anesthesia, isoflurane/oxygen mixture (1-3.5%/to effect), the body of the telemetry device was positioned and secured intra-abdominally. Subsequently, the arterial catheter of the telemetry device was passed subcutaneously to the inguinal area and introduced into the femoral artery and advanced to the level of the descending aorta. The catheter was secured with 2-0 silk ligatures. The muscle and underlying fascia was closed over the catheter using absorbable suture and the skin was closed using non-absorbable suture. The animals were allowed a minimum recovery period of 2 weeks between surgery and the evaluation of test compounds.
# Compound evaluation consisted of a 3 day paradigm at a 3 mg/kg dose. On the first day, no compounds were administered during a 24 hour period of baseline data collection. Blood pressure and heart rate data were collected continuously for one minute periods at 10 minute intervals. On the days of compound administration half the animals received test article with the other half receiving the vehicle used for compound formulation. All test materials were administered by oral gavage in a volume of 1 mL/kg. Data are expressed either as raw values (mm Hg or beats per minute) or as the change from baseline (average value for about 12 hours in low activity period prior to dosing).
row,Compound,dropped blood pressure
1,"CN(/[N+]([O-])=N/O[C@@H]1CCN(c2cccc(-n3cncn3)c2)C1)C(C)(C)C [Example 106, O^2-{(3R)-1-[3-(1H-1,2,4-triazol-1-yl)phenyl]pyrrolidin-3-yl}1-(N-tert-butyl-N-methylamino)diazen-1-ium-1,2-diolate]",at least 5 mm Hg
2,"CN(/[N+]([O-])=N/O[C@@H]1CCN(C(=O)OC(C)(C)C)C1)C(C)(C)C [Example 1, O^2-[(3R)-1-(tert-butoxycarbonyl)pyrrolidin-3-yl]1-(N-tert-butyl-N-methylamino)diazen-1-ium-1,2-diolate]",at least 5 mm Hg
3,"CCN(/[N+]([O-])=N/OC1CN(C(=O)OC(C)(C)C)C1)C(C)(C)C [Example 14, O^2-[1-(tert-butoxycarbonyl)azetidin-3-yl]1-(N-tert-butyl-N-ethylamino)diazen-1-ium-1,2-diolate]",at least 5 mm Hg
4,"CN(/[N+]([O-])=N/O[C@@H]1CCN(c2ccc(C(F)(F)F)cn2)C1=O)C(C)(C)C [Example 63, O^2-{(3R)-2-oxo-1-[5-(trifluoromethyl)pyridin-2-yl]pyrrolidin-3-yl}1-(N-tert-butyl-N-methylamino)diazen-1-ium-1,2-diolate]",at least 5 mm Hg
5,"CN(/[N+]([O-])=N/O[C@@H]1CCN(c2cccc(C#N)c2)C1)C(C)(C)C [Example 38, O^2-[(3R)-1-(3-cyanophenyl)pyrrolidin-3-yl]1-(N-tert-butyl-N-methylamino)diazen-1-ium-1,2-diolate]",at least 5 mm Hg
6,"CCN(/[N+]([O-])=N/OC1CCN(C(=O)c2ccccc2)CC1)C(C)(C)C [Example 53, O^2-[1-(phenylcarbonyl)piperidin-4-yl]1-(N-tert-butyl-N-ethylamino)diazen-1-ium-1,2-diolate]",at least 5 mm Hg
7,"CN(/[N+]([O-])=N/O[C@@H]1CCN(C(N)=O)C1)C(C)(C)C [Example 115, O^2-[(3R)-1-carbamoylpyrrolidin-3-yl]1-(N-tert-butyl-N-methylamino)diazen-1-ium-1,2-diolate]",at least 5 mm Hg
8,"Cc1nc(N2CC[C@@H](O/N=[N+](\[O-])N(C)C(C)(C)C)C2)no1 [Example 111, O^2-[(3R)-1-(5-methyl-1,2,4-oxadiazol-3-yl)pyrrolidin-3-yl]1-(N-tert-butyl-N-methylamino)diazen-1-ium-1,2-diolate]",at least 5 mm Hg
9,"CCN(/[N+]([O-])=N/OC1CCN(c2ccccn2)CC1)C(C)(C)C [Example 43, O^2-[1-(pyridin-2-yl)piperidin-4-yl]1-(N-tert-butyl-N-methylamino)diazen-1-ium-1,2-diolate]",at least 5 mm Hg
10,"CCN(/[N+]([O-])=N/OC1CCN(c2cccc(C#N)c2)CC1)C(C)(C)C [Example 46, O^2-[1-(3-cyanophenyl)piperidin-4-yl]1-(N-tert-butyl-N-ethylamino)diazen-1-ium-1,2-diolate]",at least 5 mm Hg
11,"CCN(/[N+]([O-])=N/OC1CCN(c2ccc(C#N)cn2)CC1)C(C)(C)C [Example 48, O^2-[1-(5-cyanopyridin-2-yl)piperidin-4-yl]1-(N-tert-butyl-N-ethylamino)diazen-1-ium-1,2-diolate]",at least 5 mm Hg
12,"CC(=O)N1CC[C@@H](O/N=[N+](\[O-])N(C)C(C)(C)C)C1 [Example 51, O^2-[(3R)-1-acetylpyrrolidin-3-yl]1-(N-tert-butyl-N-methylamino)diazen-1-ium-1,2-diolate]",at least 5 mm Hg
13,"CCN(/[N+]([O-])=N/OC1CCN(C(=O)OC(C)(C)C)CC1)C(C)(C)C [Example 6, O^2-[1-(tert-butoxycarbonyl)piperidin-4-yl]1-(N-tert-butyl-N-ethylamino)diazen-1-ium-1,2-diolate]",at least 5 mm Hg
14,"CCN([N+]([O-])=NO[C@@H]1CCN(c2cncc(Cl)c2)C1=O)C(C)(C)C [Example 81, O^2-[(3R)-1-(5-chloropyridin-3-yl)-2-oxopyrrolidin-3-yl]1-(N-tert-butyl N-ethylamino)diazen-1-ium-1,2-diolate]",at least 5 mm Hg
15,"CN(/[N+]([O-])=N/O[C@@H]1CCN(c2cnc(C#N)cn2)C1)C(C)(C)C [Example 104, O^2-[(3R)-1-(5-cyanopyrazin-2-yl)pyrrolidin-3-yl]1-(N-tert-butyl-N-methylamino)diazen-1-ium-1,2-diolate]",at least 5 mm Hg
16,"CN(/[N+]([O-])=N/O[C@H]1CCN(C(=O)OC(C)(C)C)C1)C(C)(C)C [Example 2, O^2-[(3S)-(tert-butoxycarbonyl)pyrrolidin-3-yl]1-(N-tert-butyl-N-methylamino)diazen-1-ium-1,2-diolate]",at least 5 mm Hg

row,Compound,dropped blood pressure
1,"CCN(/[N+]([O-])=N/OC1CCN(C2NC(=O)NC2=O)CC1)C(C)(C)C (centres unmarked) [Example 101, O^2-[1-(2,5-dioxoimidazolidin-4-yl)piperidin-4-yl]1-(N-tert-butyl-N-ethylamino)diazen-1-ium-1,2-diolate]",at least 5 mm Hg
2,"CN(/[N+]([O-])=N/O[C@@H]1CCN(c2cccc(-n3ccnn3)c2)C1)C(C)(C)C [Example 107, O^2-{(3R)-1-[3-(1H-1,2,3-triazol-1-yl)phenyl]pyrrolidin-3-yl}1-(N-tert-butyl-N-methylamino)diazen-1-ium-1,2-diolate]",at least 5 mm Hg
3,"CN(/[N+]([O-])=N/O[C@@H]1CCN(c2noc(=O)[nH]2)C1)C(C)(C)C [Example 113, O^2-[(3R)-1-(5-oxo-4,5-dihydro-1,2,4-oxadiazol-3-yl)pyrrolidin-3-yl]1-(N-tert-butyl-N-methylamino)diazen-1-ium-1,2-diolate]",at least 5 mm Hg
4,"O^2-[(3R)-1-(3-methylphenyl)-2-oxopyrrolidin-3-yl]1-(N-tert-butyl-N-ethylamino)diazen-1-ium-1,2-diolate [Example 80]",at least 5 mm Hg
5,"CCN(/[N+]([O-])=N/OC1CCN(C2SC(=O)NC2=O)CC1)C(C)(C)C (racemic) [Example 100, (±)-O^2-[1-(2,4-dioxo-1,3-thiazolidin-5-yl)piperidin-4-yl]1-(N-tert-butyl-N-ethylamino)diazen-1-ium-1,2-diolate]",at least 5 mm Hg
6,"CCN(/[N+]([O-])=N/OC1CCN(C)CC1)C(C)(C)C [Example 34, O^2-(1-methylpiperidin-4-yl)1-(N-tert-butyl-N-ethylamino)diazen-1-ium-1,2-diolate]",at least 5 mm Hg
7,"Cc1nnc(N2CC[C@@H](O/N=[N+](\[O-])N(C)C(C)(C)C)C2)[nH]1 [Example 112, O^2-[(3R)-1-(5-methyl-4H-1,2,4-triazol-3-yl)pyrrolidin-3-yl]1-(N-tert-butyl-N-methylamino)diazen-1-ium-1,2-diolate]",at least 5 mm Hg
8,CCN(/[N+]([O-])=N/OC1CCN(c2ccc(C(N)=O)cn2)CC1)C(C)(C)C [Example 103],at least 5 mm Hg
9,"CN(/[N+]([O-])=N/O[C@@H]1CCN(c2cccc(C(F)(F)F)c2)C1)C(C)(C)C [Example 40, O^2-{(3R)-1-[3-(trifluoromethyl)phenyl]pyrrolidin-3-yl}1-(N-tert-butyl-N-methylamino)diazen-1-ium-1,2-diolate]",at least 5 mm Hg
10,"CCN(/[N+]([O-])=N/OC1CCN(c2cccnc2)CC1)C(C)(C)C [Example 44, O^2-[1-(pyridin-3-yl)piperidin-4-yl]1-(N-tert-butyl-N-methylamino)diazen-1-ium-1,2-diolate]",at least 5 mm Hg
11,"CCN(/[N+]([O-])=N/OC1CCOC1)C(C)(C)C (stereo in doubt) [Example 92, O^2-[(3R)-tetrahydrofuran-3-yl]1-(N-tert-butyl-N-ethylamino)diazen-1-ium-1,2-diolate]",at least 5 mm Hg
12,"O^2-[(3R)-1-(3-methoxyphenyl)-2-oxopyrrolidin-3-yl]1-(N-tert-butyl-N-methylamino)diazen-1-ium-1,2-diolate [Example 64]",at least 5 mm Hg
13,"CN(/[N+]([O-])=N/OC1CCOCC1)C(C)(C)C [Example 94, O^2-(tetrahydro-2H-pyran-4-yl)1-(N-tert-butyl-N-methylamino)diazen-1-ium-1,2-diolate]",at least 5 mm Hg
14,"CCN(/[N+]([O-])=N/O[C@@H]1CCN(C(=O)NC(C)(C)C)C1)C(C)(C)C [Example 59, O^2-[(3R)-1-(tert-butylcarbamoyl)pyrrolidin-3-yl]1-(N-tert-butyl-N-ethylamino)diazen-1-ium-1,2-diolate]",at least 5 mm Hg
15,"CN(/[N+]([O-])=N/O[C@@H]1CCN(C2CCCCC2)C1)C(C)(C)C [Example 23, O^2-[(3R)-1-cyclohexylpyrrolidin-3-yl]1-(N-tert-butyl-N-methylamino)diazen-1-ium-1,2-diolate]",at least 5 mm Hg
16,"CN(/[N+]([O-])=N/O[C@@H]1CCN(c2cc(C(F)(F)F)cc(C(F)(F)F)c2)C1)C(C)(C)C [Example 41, O^2-{(3R)-1-[3,5-bis(trifluoromethyl)phenyl]pyrrolidin-3-yl}1-(N-tert-butyl-N-methylamino)diazen-1-ium-1,2-diolate]",at least 5 mm Hg
